From publication PMC8790569
Construct, isoform or probe ends are uncertain for at least one entry. A weaker result is weaker than the reference pair of the same experiment. Protein sequences can lack the tags named with them.

System: T1, AzuR (Anabaena sp. strain PCC 7120)
T1 sequence (looked up): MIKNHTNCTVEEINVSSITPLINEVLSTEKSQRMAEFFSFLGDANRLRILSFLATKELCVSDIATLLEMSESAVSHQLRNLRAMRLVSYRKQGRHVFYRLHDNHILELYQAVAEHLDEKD
Test: EMSA
Conditions: 20 mM Tris-Cl pH 7.5, 1 mM EDTA, 20 ul, RT 30 min, 10% native PAGE in 0.5x TBE, recombinant protein, residues 1-120, label: DIG-ddUTP end label (unlabeled in Fig 4C), probe letters rebuilt from the primers and the genome

Measured: binding result

AAACGTATTATATAACCTAATTGTTACATTTTATTAAGCAATACTTGAACATCTGTTCAGGTATTGTAGTGTAATCACAAGTGAAAACGGAGGAAATAAT (double strand) [PnmtA (100 bp upstream of nmtA ORF)]
binds more weakly: 100 uM Co2+, no DTT | 100 uM Cu2+, no DTT | 100 uM Mn2+, no DTT | 100 uM Ni2+, no DTT | 100 uM Pb2+, no DTT | increasing Cd2+, 1 mM DTT (more prominent disruption) | increasing Cd2+, no DTT | increasing Zn2+, no DTT
